# Results are given in words; binding and its absence hold for the method and conditions named. In cells and extracts the contact can be indirect. Binding can be weak; no strength is given.
# The chains behind the UniProt entries cited, without tags or fusion partners. Where a name states a change or a piece, a line headed by the entry shows the natural chain unless it says otherwise.
# UniProt P15923: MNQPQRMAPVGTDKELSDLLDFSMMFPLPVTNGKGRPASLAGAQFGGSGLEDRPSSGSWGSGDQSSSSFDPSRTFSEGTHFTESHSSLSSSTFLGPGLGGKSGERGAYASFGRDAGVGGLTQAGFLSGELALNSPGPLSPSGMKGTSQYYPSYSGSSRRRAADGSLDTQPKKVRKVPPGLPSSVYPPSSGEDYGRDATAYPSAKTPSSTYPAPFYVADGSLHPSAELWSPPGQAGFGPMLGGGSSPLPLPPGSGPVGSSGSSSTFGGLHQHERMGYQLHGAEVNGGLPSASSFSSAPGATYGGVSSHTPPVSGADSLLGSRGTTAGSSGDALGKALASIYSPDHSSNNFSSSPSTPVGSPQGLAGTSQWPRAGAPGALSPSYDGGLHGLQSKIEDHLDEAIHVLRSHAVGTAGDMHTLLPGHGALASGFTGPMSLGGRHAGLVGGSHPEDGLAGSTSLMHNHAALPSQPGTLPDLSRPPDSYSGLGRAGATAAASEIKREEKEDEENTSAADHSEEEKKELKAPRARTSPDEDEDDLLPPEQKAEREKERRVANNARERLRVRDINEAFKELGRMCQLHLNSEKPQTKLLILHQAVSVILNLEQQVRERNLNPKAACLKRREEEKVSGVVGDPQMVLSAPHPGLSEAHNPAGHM
# UniProt Q02363: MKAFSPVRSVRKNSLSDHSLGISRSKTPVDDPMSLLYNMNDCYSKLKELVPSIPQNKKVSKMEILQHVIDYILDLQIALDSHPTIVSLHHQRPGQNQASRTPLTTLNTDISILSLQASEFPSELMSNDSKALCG
# Biological target: Tcf3 in Jurkat cells (human (endogenous in Jurkat)) (UniProt P15923)
# Assay: co-IP; Pierce co-IP kit; lysates of Jurkat cells, GFP-Id2^WT and GFP-Id2^ΔHLH Jurkat cells, with or without anti-CD3 antibody; IP lysis buffer (0.025 M Tris, 0.15 M NaCl, 0.001 M EDTA, 1% NP-40, 5% glycerol); antibody-conjugated resin (anti-GFP, anti-Flag or anti-Tcf3) overnight at 4 °C; immunoblot
substance,measurement,value
GFP-Id2^ΔHLH (HLH-deleted Id2) (from UniProt Q02363),binding,binds

# From PMC10902300
